The record followed here is PMC8651621.

Experiment in all cases: two-hybrid; pGADT7 and pGBKT7 constructs co-transformed into yeast AH109; growth on -LT and on -LTH with various concentrations of 3-AT
In experiment [1] the target is PRR9, yeast two-hybrid fusion (Arabidopsis thaliana).
Experiment [2] has as its target PRR5 truncation containing the PR domain (Arabidopsis thaliana).
Experiment [3] deals with PRR7, yeast two-hybrid fusion (Arabidopsis thaliana).

These are yes or no findings as the source states them, for the method shown. A result given as binding can be weak or reduced; the word gives no strength. Where a sequence is shown, tags or fusion partners need not be part of it.

B1: BBX19, yeast two-hybrid fusion (protein, UniProt C0SVM5 1-183)
chain: MRILCDACENAAAIIFCAADEAALCRPCDEKVHMCNKLASRHVRVGLAEPSNAPCCDICENAPAFFYCEIDGSSLCLQCDMVVHVGGKRTHGRFLLLRQRIEFPGDKPKENNTRDNLQNQRVSTNGNGEANGKIDDEMIDLNANPQRVHEPSSNNNGIDVNNENNHEPAGLVPVGPFKRESEK
On to B1, for which the binding entry in experiment [1] is reported as “binds”.

B2: B-BOX 18 (BBX18), yeast two-hybrid fusion (protein, UniProt Q9SJU5 1-172)
chain: MRILCDACESAAAIVFCAADEAALCCSCDEKVHKCNKLASRHLRVGLADPSNAPSCDICENAPAFFYCEIDGSSLCLQCDMVVHVGGKRTHRRFLLLRQRIEFPGDKPNHADQLGLRCQKASSGRGQESNGNGDHDHNMIDLNSNPQRVHEPGSHNQEEGIDVNNANNHEHE
As to B2, the results for the binding entry in experiment [1], in experiment [2] and in experiment [3] were “no binding”, “binds” and “binds”, respectively.
